Measurements: paper PMC8092309
No constants are given. Whether binding was seen depends on the method and setting. Binding can be weak; no strength is given. Tags and fused reporters may be left off the sequences shown.

Molecular target: polyhistidine-tagged mEhQTRT1 (EhQTRT1 with the point mutation D267 to A267) (Entamoeba histolytica)
Experiment: SEC; Ni-NTA-purified complex dialysed (25 mM HEPES pH 7.4, 300 mM NaCl, 2 mM DTT), then Superdex 200 increase 10/300 GL in 25 mM HEPES pH 7.3, 100 mM NaCl, 50 uM ZnSO4, 5% glycerol, 2 mM DTT; peak fractions on SDS-PAGE with silver staining, bands identified by mass spectrometry; both purified

B1: EhQTRTD1 (Entamoeba histolytica queuine tRNA-ribosyltransferase domain-containing 1, subunit of EhTGT), untagged (protein, UniProt C4M2L1 1-380)
chain: MSTSTPQFQIISTTKVGSIPFVTIDNYEKYLKEVNTFLFCYRDLYEAQEFILKYGKGYKKYFMMPEQSHHILSMSLTEKIDDSCNKLTKAEFNITTRGGYRPLTIQQVINFSNQSGFDKIEGFCYSPLEKRKTSKKMKQQRQIVIKKLKEMIEEKTKKGLTIEIIASIGLTGLDDDIQYVKDIIQTGIHEIVFDCEYIEDKDKILDFIQNIKDLCNNIKMYVKLYSFNLSQIIQAALMNVSIWTNSINEFTLHGQAFVFPLSINQNNNITSIDLYNTCYKDVVNDVCVNGCECFSCKSNQSRAYIHHLLLCHELTGTTLLSLHNFHYIHKLEQLINSLLLNDRSKLQQLADFYNSLIPPPEFQKVKLYADHRTKENEDDD
Q: Which binding does the source give for B1 here?
A: The binding was “binds”.
